Where a name gives a salt, the structure may show the parent alone. The list shows a part of the results. Hit calls seldom repeat between salt and free forms of one compound.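 Kinases were expressed as nanoluciferase fusions in K562 cells and luminescence was read every 4 h between 2 and 18 h as percent of control, DMSO set to 100% and a positive control to 0%. A time point counts as decreased when the signal drops significantly (2 sigma). The hit call is the authors' own, does not follow from the count of time points alone, and its rule is not shown.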
Legend:
Assay in all cases: number of time points (of 5) at which kinase-Nluc abundance scored as decreased, DMSO-normalised (count); higher = more persistent destabilization
Details in all cases: K562; 2-18 h
CSNK1A1 = CSNK1A1 (UniProt P48729)
CSNK1D = CSNK1D (UniProt P48730)
DDR1 = DDR1 (UniProt Q08345)
DYRK1B = DYRK1B (UniProt Q9Y463)
DYRK2 = DYRK2 (UniProt Q92630)
EGFR = EGFR (UniProt P00533)
EGFR_G719S = EGFR_G719S (UniProt P00533)
EGFR_G719S_T790M = EGFR_G719S_T790M (UniProt P00533)
EGFR_L718V = EGFR_L718V (UniProt P00533)
EGFR_L858R = EGFR_L858R (UniProt P00533)

Amino acid sequences for entries named in this document (tags omitted). A change or cut given only in a name is not applied to a line headed by its entry.
UniProt P48729: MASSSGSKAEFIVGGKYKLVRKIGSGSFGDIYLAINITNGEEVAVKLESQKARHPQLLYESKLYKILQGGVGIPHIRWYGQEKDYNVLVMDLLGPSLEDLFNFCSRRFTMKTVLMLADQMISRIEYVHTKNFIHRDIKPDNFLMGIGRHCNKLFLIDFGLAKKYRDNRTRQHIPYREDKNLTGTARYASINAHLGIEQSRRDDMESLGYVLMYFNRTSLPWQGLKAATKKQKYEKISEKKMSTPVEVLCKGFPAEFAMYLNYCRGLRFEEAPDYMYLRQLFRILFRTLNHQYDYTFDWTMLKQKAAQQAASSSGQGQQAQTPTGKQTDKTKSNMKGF
UniProt P48730: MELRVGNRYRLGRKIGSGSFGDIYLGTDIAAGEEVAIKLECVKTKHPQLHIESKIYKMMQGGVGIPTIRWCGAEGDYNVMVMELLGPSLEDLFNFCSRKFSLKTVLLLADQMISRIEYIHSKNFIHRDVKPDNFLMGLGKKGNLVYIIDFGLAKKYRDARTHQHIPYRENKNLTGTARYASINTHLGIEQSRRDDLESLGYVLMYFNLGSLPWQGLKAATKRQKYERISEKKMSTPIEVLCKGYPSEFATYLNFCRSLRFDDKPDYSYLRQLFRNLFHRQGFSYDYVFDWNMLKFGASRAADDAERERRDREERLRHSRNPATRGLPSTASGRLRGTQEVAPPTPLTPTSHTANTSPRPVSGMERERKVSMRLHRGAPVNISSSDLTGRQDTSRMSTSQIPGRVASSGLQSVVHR
UniProt Q08345: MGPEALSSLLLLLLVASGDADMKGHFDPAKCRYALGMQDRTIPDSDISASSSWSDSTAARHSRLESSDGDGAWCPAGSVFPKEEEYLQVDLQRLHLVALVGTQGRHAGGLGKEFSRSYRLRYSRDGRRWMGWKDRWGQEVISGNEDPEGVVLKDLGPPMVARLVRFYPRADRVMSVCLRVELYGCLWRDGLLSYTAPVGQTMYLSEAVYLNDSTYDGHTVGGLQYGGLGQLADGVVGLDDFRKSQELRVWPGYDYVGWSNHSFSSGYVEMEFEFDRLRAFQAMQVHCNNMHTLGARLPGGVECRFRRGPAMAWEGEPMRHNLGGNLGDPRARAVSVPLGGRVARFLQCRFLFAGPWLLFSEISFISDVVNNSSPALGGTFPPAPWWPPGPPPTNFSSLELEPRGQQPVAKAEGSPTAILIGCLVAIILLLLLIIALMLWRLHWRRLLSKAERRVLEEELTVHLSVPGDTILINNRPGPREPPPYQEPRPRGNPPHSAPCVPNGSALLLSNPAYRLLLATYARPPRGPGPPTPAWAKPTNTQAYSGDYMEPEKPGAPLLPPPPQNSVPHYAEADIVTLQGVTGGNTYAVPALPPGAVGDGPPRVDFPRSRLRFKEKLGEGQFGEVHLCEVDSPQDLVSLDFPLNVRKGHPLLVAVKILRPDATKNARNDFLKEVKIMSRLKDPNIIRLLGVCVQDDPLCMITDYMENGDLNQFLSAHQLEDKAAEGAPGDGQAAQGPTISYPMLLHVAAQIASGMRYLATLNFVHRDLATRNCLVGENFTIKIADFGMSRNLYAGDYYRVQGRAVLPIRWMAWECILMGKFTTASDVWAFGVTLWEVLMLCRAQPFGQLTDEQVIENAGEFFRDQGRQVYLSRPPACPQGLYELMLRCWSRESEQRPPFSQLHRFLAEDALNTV
UniProt Q9Y463, whole entry, looked up: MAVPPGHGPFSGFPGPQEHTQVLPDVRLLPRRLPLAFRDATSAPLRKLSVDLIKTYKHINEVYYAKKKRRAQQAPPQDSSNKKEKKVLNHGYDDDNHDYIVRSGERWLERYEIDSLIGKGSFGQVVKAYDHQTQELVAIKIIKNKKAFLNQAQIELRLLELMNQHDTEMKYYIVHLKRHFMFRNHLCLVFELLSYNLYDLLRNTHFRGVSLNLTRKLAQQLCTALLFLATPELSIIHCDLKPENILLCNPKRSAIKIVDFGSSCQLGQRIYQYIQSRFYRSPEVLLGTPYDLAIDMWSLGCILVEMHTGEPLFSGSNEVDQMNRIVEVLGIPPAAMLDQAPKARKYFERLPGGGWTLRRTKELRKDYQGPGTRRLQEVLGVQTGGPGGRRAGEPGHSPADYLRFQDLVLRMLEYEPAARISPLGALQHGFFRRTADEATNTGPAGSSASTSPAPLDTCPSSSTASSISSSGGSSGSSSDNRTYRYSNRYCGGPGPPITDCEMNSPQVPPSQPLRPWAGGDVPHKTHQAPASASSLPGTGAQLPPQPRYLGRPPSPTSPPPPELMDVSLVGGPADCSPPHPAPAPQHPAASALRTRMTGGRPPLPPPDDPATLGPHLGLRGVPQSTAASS
UniProt Q92630: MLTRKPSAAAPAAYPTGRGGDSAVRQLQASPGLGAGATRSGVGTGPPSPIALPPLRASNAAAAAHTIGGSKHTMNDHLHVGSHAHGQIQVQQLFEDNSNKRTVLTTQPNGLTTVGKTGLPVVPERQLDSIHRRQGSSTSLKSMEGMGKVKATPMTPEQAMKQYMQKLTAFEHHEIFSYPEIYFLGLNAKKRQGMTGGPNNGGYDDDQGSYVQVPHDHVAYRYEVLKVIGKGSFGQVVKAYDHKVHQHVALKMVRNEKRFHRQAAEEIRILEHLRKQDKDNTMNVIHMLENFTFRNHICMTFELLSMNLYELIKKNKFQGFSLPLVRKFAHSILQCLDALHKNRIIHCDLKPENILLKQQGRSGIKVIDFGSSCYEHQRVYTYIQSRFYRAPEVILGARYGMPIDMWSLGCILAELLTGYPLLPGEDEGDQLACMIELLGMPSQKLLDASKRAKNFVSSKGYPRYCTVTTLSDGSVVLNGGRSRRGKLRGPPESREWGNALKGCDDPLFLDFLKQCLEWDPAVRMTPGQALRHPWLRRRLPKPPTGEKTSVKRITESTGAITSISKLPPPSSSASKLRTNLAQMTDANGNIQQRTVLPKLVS

Row | SMILES | number of time points (CSNK1A1) | number of time points (CSNK1D) | number of time points (DDR1) | number of time points (DYRK1B) | number of time points (DYRK2) | number of time points (EGFR) | number of time points (EGFR_G719S) | number of time points (EGFR_G719S_T790M) | number of time points (EGFR_L718V) | number of time points (EGFR_L858R)
1 | CCOC(=O)N1CCN(C(=O)[C@H](Cc2cccc(C(=N)N)c2)NS(=O)(=O)c2c(C(C)C)cc(C(C)C)cc2C(C)C)CC1 (10 µM) | 0 | 0 | 0 | 0 | 0 | 0 | 0 | 0 | 0 | 0
2 | COc1cc2ncc(-c3ccccc3)nc2cc1OC [Tyrphostin AG1296] (10 µM) | 0 | 0 | 0 | 0 | 0 | 0 | 0 | 0 | 0 | 0
3 | Cc1c(NC(=O)c2cccn(-c3ccc(F)cc3)c2=O)ccc(Oc2ccnc(NC(=O)C3CC3)c2)c1C (2 µM) | 0 | 0 | 2 | 1 | 3 | 0 | 0 | 0 | 0 | 0
4 | CCS(=O)(=O)c1ncc(Cl)c(C(=O)N(Cc2ccc(Cl)cc2)Cc2ccco2)n1 (2.5 µM) | 0 | 0 | 1 | 3 | 0 | 0 | 0 | 0 | 0 | 0
5 | Nc1ncnc2c1c(-c1cccc(OCc3ccccc3)c1)cn2C1CC(CN2CCC2)C1 (stereo not given) (2.5 µM) | 0 | 0 | 1 | 0 | 0 | 0 | 0 | 0 | 0 | 0
6 | COc1cc(Nc2ncc(F)c(Nc3ccc4c(n3)NC(=O)C(C)(C)O4)n2)cc(OC)c1OC (10 µM) | 0 | 0 | 0 | 0 | 0 |  |  |  |  | 
7 | O=C1NC(=O)/C(=C/c2ccc3nccnc3c2)S1 (10 µM) | 0 | 0 | 0 | 0 | 0 | 0 | 0 | 0 | 0 | 0
8 | CNC(=O)c1c(F)cccc1Nc1nc(Nc2cc3c(cc2OC)CCN3C(=O)CN(C)C)nc2[nH]ccc12 (10 µM) | 0 | 0 | 0 | 0 | 0 | 1 | 1 | 0 | 0 | 0
9 | COc1cc2nccc(Oc3ccc(NC(=O)NC4CC4)c(Cl)c3)c2cc1C(N)=O [Lenvatinib] (10 µM) | 0 | 0 | 0 | 0 | 0 | 1 | 3 | 0 | 0 | 0
10 | C=CC(=O)Nc1cc(Nc2ncc(Cl)c(-c3c[nH]c4ccccc34)n2)c(OC)cc1N(C)CCN(C)C [Mutant EGFR inhibitor] (2.5 µM) | 0 | 0 | 3 | 1 | 3 | 0 | 0 | 0 | 0 | 0
11 | Cc1cccc(Oc2cnc(=O)[nH]c2)c1 [Tolimidone] (10 µM) | 0 | 0 | 0 | 0 | 0 | 0 | 0 | 0 | 0 | 0
12 | Cc1ccc2nc(NCCN)c3ncc(C)n3c2c1 (2.5 µM) | 0 | 0 | 0 | 0 | 0 | 0 | 0 | 0 | 0 | 0
13 | COc1ccccc1-c1cc(Nc2cccc(CS(N)(=O)=O)c2)ncn1 (10 µM) | 1 | 0 | 0 | 0 | 3 | 0 | 0 | 3 | 0 | 3
14 | Cc1ccc(CNc2ncnc3ccc(-c4ccc(CO)o4)cc23)o1 (10 µM) | 0 | 0 | 0 | 0 | 0 | 0 | 0 | 0 | 0 | 0
15 | CC#CC(=O)Nc1ccc2ncnc(Nc3cccc(Br)c3)c2c1 (10 µM) | 0 | 0 | 0 | 0 | 0 |  |  |  |  | 
16 | C=CC(=O)Nc1cccc(Nc2nc(Nc3ccc(N4CCN(C(C)=O)CC4)cc3OC)ncc2C(F)(F)F)c1 [Rociletinib] (10 µM) | 0 | 0 | 1 | 1 | 4 | 0 | 0 | 0 | 1 | 0
17 | CCc1c(C(=O)NNC(=O)C(O)c2cc(F)cc(F)c2)ccc(O)c1C (stereo not given) (10 µM) | 0 | 0 | 0 | 0 | 0 | 0 | 0 | 0 | 0 | 0
18 | Cc1[nH]c(/C=C2\C(=O)Nc3ccc(F)cc32)c(C)c1C(=O)N[C@H]1CCN(C(=O)N(C)C)C1 [Vorolanib] (10 µM) | 0 | 0 | 0 | 0 | 0 | 0 | 0 | 0 | 0 | 0
19 | C=CC(=O)Nc1cccc(Nc2nc(Nc3ccc(NC4CN(CCF)C4)cc3OC)ncc2C(F)(F)F)c1 (2.5 µM) | 0 | 0 | 0 | 0 | 0 | 0 | 0 | 0 | 0 | 0
20 | CCS(=O)(=O)Nc1ccc2[nH]c(O)c(C(=Nc3ccc(CN4CCCCC4)cc3)c3ccccc3)c2c1 [Hesperadin] (2.5 µM) | 0 | 0 | 4 | 0 | 4 | 0 | 0 | 1 | 0 | 1

Two entries picked at random from the list so far:
Row | SMILES | number of time points (CSNK1A1) | number of time points (CSNK1D) | number of time points (DDR1) | number of time points (DYRK1B) | number of time points (DYRK2) | number of time points (EGFR) | number of time points (EGFR_G719S) | number of time points (EGFR_G719S_T790M) | number of time points (EGFR_L718V) | number of time points (EGFR_L858R)
4 | CCS(=O)(=O)c1ncc(Cl)c(C(=O)N(Cc2ccc(Cl)cc2)Cc2ccco2)n1 (2.5 µM) | 0 | 0 | 1 | 3 | 0 | 0 | 0 | 0 | 0 | 0
7 | O=C1NC(=O)/C(=C/c2ccc3nccnc3c2)S1 (10 µM) | 0 | 0 | 0 | 0 | 0 | 0 | 0 | 0 | 0 | 0

Continued.

Row | SMILES | number of time points (CSNK1A1) | number of time points (CSNK1D) | number of time points (DDR1) | number of time points (DYRK1B) | number of time points (DYRK2) | number of time points (EGFR) | number of time points (EGFR_G719S) | number of time points (EGFR_G719S_T790M) | number of time points (EGFR_L718V) | number of time points (EGFR_L858R)
21 | c1ccc(-c2[nH]ncc2-c2ccnc3ccccc23)nc1 (10 µM) | 0 | 0 | 0 | 0 | 0 | 0 | 0 | 0 | 0 | 0
22 | CCCCCCCCCCCCC/C=C/[C@@H](O)[C@@H](N)CO [D-erythro-Sphingosine] (2.5 µM) | 0 | 0 | 0 | 0 | 0 | 0 | 0 | 0 | 0 | 0
23 | COc1cc2c(N3CCN(C(=O)Nc4ccc(OC(C)C)cc4)CC3)ncnc2cc1OCCCN1CCCCC1 [Tandutinib] (10 µM) | 0 | 0 | 0 | 0 | 0 |  |  |  |  | 
24 | O=C1NC(=O)/C(=C\c2cccc(C(F)(F)F)c2)S1 (2.5 µM) | 0 | 0 | 0 | 0 | 0 | 0 | 0 | 0 | 0 | 0
25 | CCN1CCC(n2cc(CNc3cc(Cl)c4ncc(C#N)c(Nc5ccc(F)c(Cl)c5)c4c3)nn2)CC1 [Cot inhibitor-2] (2.5 µM) | 0 | 0 | 0 | 0 | 0 | 0 | 0 | 0 | 0 | 0
26 | C=C(CC[C@@H](C(=O)O)[C@H]1[C@H](O)C[C@@]2(C)C3=C(CC[C@]12C)[C@@]1(C)CC[C@H](OC(C)=O)C(C)(C)[C@@H]1CC3)C(C)C [Pachymic acid] (10 µM) | 0 | 0 | 0 | 0 | 0 | 0 | 0 | 0 | 0 | 0
27 | C[C@@H](c1ccc(-c2ccccc2)c(F)c1)c1cc(NC(=N)N2CCOCC2)on1 [Rimacalib] (10 µM) | 0 | 0 | 0 | 0 | 0 | 0 | 0 | 0 | 0 | 0
28 | CC(=O)c1c(C)cc2cccc(O)c2c1O [Nepodin] (10 µM) | 0 | 0 | 0 | 0 | 0 | 0 | 0 | 0 | 0 | 0
29 | CCCS(=O)(=O)Nc1ccc(F)c(C(=O)c2c[nH]c3ncc(-c4ccc(Cl)cc4)cc23)c1F [Vemurafenib] (10 µM) | 2 | 1 | 1 | 0 | 0 | 0 | 0 | 0 | 0 | 0
30 | COc1cc2c(N3CCN(C(=O)Nc4ccc(OC(C)C)cc4)CC3)ncnc2cc1OCCCN1CCCCC1 [Tandutinib (hydrochloride)] (10 µM) | 0 | 0 | 0 | 0 | 0 |  |  |  |  | 
31 | C[C@@H](c1ccc(F)cc1)n1nnc2cnc3ccc(-c4ccc5ocnc5c4)cc3c21 (10 µM) | 0 | 0 | 0 | 0 | 0 | 0 | 0 | 0 | 0 | 0
32 | COc1cc(Nc2ncc(F)c(Nc3ccc4c(n3)NC(=O)C(C)(C)O4)n2)cc(OC)c1OC [R406 (free base)] (10 µM) | 0 | 0 | 0 | 0 | 0 |  |  |  |  | 
33 | Cc1ccccc1-n1c([C@H](C)Nc2nc(N)nc3nc[nH]c23)nc2cccc(C)c2c1=O [CAL-130 (Hydrochloride)] (10 µM) | 0 | 0 | 0 | 0 | 0 | 0 | 0 | 0 | 0 | 0
34 | CN1CCN(c2cccc(Nc3nc4c(-c5ccc(S(C)(=O)=O)cc5)cccn4n3)c2)CC1 (10 µM) | 0 | 0 | 0 | 0 | 0 | 0 | 0 | 0 | 0 | 0
35 | Cc1nc2sccn2c(=O)c1CCN1CCC(=C(c2ccccc2)c2ccc(F)cc2)CC1 (10 µM) | 0 | 0 | 0 | 0 | 0 | 0 | 0 | 0 | 0 | 0
36 | Cc1cc(O)c2c(c1)C(=O)c1cc(O)cc(O)c1C2=O [Emodin] (10 µM) | 0 | 0 | 0 | 0 | 0 | 0 | 0 | 0 | 0 | 0
37 | CC1CCc2c(cc(Br)c(F)c2Br)N1C=O (stereo not given) (10 µM) | 0 | 0 | 0 | 0 | 0 | 0 | 0 | 0 | 0 | 0
38 | CCN1CCN(Cc2ccc(Nc3ncc(F)c(-c4cc(F)c5nc(C)n(C(C)C)c5c4)n3)nc2)CC1 [Abemaciclib] (2 µM) | 0 | 0 | 0 | 0 | 0 | 0 | 0 | 0 | 0 | 0
39 | Nc1ccc(-c2cnc(N)c(-c3ccc(Cl)cc3)c2)cn1 (10 µM) | 0 | 0 | 0 | 0 | 0 | 0 | 0 | 0 | 0 | 0

Reference: the supplement of paper PMC12823440, “Inhibitors supercharge kinase turnover through native proteolytic circuits” (Nature, 2025)
